# Experimental data taken from article PMC9424243, “Structure of a nucleosome-bound MuvB transcription factor complex reveals DNA remodelling” (Nature Communications, 2022).
# Chains of the proteins cited; added tags and fusions are not shown. Lines headed by an entry give the natural chain unless they say otherwise; changes in a name come on top.
# UniProt Q09028: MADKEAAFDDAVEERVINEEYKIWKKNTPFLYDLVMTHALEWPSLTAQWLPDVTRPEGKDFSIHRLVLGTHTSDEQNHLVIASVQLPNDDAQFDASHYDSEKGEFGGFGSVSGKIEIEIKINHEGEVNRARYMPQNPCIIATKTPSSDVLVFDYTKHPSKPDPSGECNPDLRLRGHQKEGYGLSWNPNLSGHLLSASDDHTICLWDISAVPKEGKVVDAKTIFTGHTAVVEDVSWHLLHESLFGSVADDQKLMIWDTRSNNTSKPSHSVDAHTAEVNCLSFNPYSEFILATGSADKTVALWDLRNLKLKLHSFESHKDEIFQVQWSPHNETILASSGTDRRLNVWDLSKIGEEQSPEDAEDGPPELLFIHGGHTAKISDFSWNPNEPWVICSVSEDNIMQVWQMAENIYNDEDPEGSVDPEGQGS
# UniProt P10244: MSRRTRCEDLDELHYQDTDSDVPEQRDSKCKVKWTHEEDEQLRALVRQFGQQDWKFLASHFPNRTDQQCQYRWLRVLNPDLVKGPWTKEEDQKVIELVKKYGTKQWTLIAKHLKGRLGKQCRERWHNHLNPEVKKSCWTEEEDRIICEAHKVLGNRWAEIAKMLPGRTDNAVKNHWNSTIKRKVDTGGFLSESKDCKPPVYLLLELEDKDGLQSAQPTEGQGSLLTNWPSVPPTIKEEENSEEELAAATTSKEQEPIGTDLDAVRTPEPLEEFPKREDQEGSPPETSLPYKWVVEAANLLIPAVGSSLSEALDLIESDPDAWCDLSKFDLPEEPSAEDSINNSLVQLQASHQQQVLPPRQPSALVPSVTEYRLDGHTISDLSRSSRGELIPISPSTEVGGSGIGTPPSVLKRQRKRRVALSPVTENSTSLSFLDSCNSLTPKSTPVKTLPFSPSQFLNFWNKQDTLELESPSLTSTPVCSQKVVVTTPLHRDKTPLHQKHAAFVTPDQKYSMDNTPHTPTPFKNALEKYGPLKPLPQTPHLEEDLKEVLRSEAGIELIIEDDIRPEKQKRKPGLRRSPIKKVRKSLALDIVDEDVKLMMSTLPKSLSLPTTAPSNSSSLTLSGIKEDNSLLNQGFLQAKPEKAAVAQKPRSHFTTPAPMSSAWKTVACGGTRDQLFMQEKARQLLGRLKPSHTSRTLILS
# No constants are given. Whether binding was seen depends on the method and setting. Some binding calls cover weakened binding; strength is not graded here.
# B1: LIN52^FL(1–116) (natural protein, human, UniProt Q52LA3 1-112, looked up)
# chain: MASPTDGTDLEASLLSFEKLDRASPDLWPEQLPGVAEFAASFKSPITSSPPKWMAEIERDDIDMLKELGSLTTANLMEKVRGLQNLAYQLGLDESREMTRGKFLNILEKPKK
# notes: LIN52, human, residues 1-116 (LIN52^FL), codon optimised CDS; source: Hi-5 insect cells co-infected with MuvB baculoviruses; purified as part of the complex (Strep-Tactin, 3C protease, SEC)
# B2: LIN54^short(515–749) (domain or fragment, human, UniProt Q6MZP7 515-749, looked up)
# chain: SESASRPRKPCNCTKSLCLKLYCDCFANGEFCNNCNCTNCYNNLEHENERQKAIKACLDRNPEAFKPKIGKGKEGESDRRHSKGCNCKRSGCLKNYCECYEAKIMCSSICKCIGCKNFEESPERKTLMHLADAAEVRVQQQTAAKTKLSSQISDLLTRPTPALNSGGGKLPFTFVTKEVAEATCNCLLAQAEQADKKGKSKAAAERMILEEFGRCLMSVINSAGKAKSDPCAMNC
# notes: LIN54, human, residues 515-749 (non-conserved N-terminus removed), codon optimised CDS; also called short version of LIN54; source: Hi-5 insect cells co-infected with MuvB baculoviruses; purified as part of the complex (Strep-Tactin, 3C protease, SEC)
# Legend:
# [1] = biological target: LIN52^FL(1–116) (human) (UniProt Q52LA3); test: cryo-EM structure; MMB^core:NCP167 mixed at 2.5:1, GraFix (glutaraldehyde, sucrose gradient); nucleosome at 3.3 Å, MuvB^HEAD 7.5 Å and MuvB^TAIL 8.7 Å, known structures fitted; both purified
# [2] = biological target: T1, LIN37^FL(1–246) (human, UniProt Q96GY3 1-246); test: SEC; subunits co-expressed in Hi-5 cells; complex held on Strep-Tactin by StrepII x2 on LIN37, washed with 1000 mM NaCl, tag cut with 3C, then SEC (S200 or Superose 6) in 20 mM HEPES pH 8, 150 mM NaCl, 0.5 mM TCEP
# T1 construct: LIN37, human, residues 1-246 (LIN37^FL), codon optimised CDS; Carries the StrepII x2 tag by which the MuvB complexes were purified; the tag was removed with 3C protease before the final SEC; also called FL-LIN37; source: Hi-5 insect cells co-infected with MuvB baculoviruses; purified as part of the complex (Strep-Tactin, 3C protease, SEC)
# T1 sequence (looked up): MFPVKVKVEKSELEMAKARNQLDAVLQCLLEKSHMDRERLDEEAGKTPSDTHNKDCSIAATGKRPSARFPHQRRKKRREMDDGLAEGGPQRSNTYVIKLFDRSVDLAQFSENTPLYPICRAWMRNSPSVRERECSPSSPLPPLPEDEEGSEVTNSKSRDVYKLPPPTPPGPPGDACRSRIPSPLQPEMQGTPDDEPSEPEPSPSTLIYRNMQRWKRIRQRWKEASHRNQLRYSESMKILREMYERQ
# [3] = biological target: T2, LIN9^FL(1–542) (human, UniProt Q5TKA1 1-542); test: cryo-EM structure; MMB^core:NCP167 mixed at 2.5:1, GraFix (glutaraldehyde, sucrose gradient); nucleosome at 3.3 Å, MuvB^HEAD 7.5 Å and MuvB^TAIL 8.7 Å, known structures fitted; both purified
# T2 construct: LIN9, human, residues 1-542 (LIN9^FL), codon optimised CDS; Subunit of the co-expressed MuvB, MuvB^core and MMB^core complexes; only DIRP and tudor domains are built in PDB 7R1D; source: Hi-5 insect cells co-infected with MuvB baculoviruses; purified as part of the complex (Strep-Tactin, 3C protease, SEC)
# T2 sequence (looked up): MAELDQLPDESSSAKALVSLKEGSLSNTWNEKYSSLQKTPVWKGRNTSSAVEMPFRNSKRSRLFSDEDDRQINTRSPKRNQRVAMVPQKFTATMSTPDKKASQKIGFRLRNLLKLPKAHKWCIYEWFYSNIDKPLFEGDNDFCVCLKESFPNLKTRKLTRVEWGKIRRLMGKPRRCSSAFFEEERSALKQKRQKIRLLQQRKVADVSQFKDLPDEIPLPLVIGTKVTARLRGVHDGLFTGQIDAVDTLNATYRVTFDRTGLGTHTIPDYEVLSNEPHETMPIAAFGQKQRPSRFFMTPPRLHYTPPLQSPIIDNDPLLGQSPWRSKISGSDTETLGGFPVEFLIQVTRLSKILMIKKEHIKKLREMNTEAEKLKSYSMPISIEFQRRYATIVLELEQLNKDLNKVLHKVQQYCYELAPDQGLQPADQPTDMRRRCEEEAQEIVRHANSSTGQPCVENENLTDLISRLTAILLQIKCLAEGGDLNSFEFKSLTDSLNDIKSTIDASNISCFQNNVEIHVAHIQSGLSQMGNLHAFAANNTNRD
# [4] = biological target: RbBP4^FL(1–425) with StrepII x2 tag (of the MuvB ΔLIN37 complex) (human) (UniProt Q09028); test: mass photometry; purified co-expressed complex diluted from 500 nM just before measurement; 20 mM HEPES pH 8, 150 mM NaCl, 0.5 mM TCEP; both purified
# [5] = biological target: T1, LIN37^FL(1–246); test: cross-linking; DSSO cross-linking mass spectrometry of 28 μM purified MuvB complex, 10 min on ice, monomeric SEC fraction analysed; both purified
# [6] = biological target: LIN52^FL(1–116) (human) (UniProt Q52LA3); test: as above
molecule,measurement,setting,value
B-MYB^FL(1–700) (from UniProt P10244 1-700),binding,[1],binds
B1,binding,[2],binds
same,binding,[3],binds
same,binding,[4],binds
same,binding,[5],binds
B2,binding,[6],binds
